Experimental data published in patent US6017958A, “Method of treating malignant tumors with thyroxine analogues having no significant hormonal activity” (Octamer, Inc., priority 1997, dated 2000).
At least one compound was matched to its structure with a doubt left.

System: A-549 (lung cancer) cell extracts, esterase
Assay: Esterase cleavage of DIME by A-549 cell extracts (TLC)
Assay type: in vitro ADME, human
Details: 125 μM BNPP
Protocol: In the experiment shown in lines 1 and 2 the esterase activity of the extract occurs during 4 hours incubation with 1 μM DIME. […] Lines 3 and 4 depict the same experiments as in lines 1 and 2, except the cell extracts were prepared from intact cells preincubated for 24 hours with 1 μM DIME, then washed and extracted.
(a) mouse tissue homogenate (brain, kidney, liver lung) consisting of 0.2 g of tissue in 1.0 ml. of homogenization buffer (50 mM Tris (pH 7.4), 400 mM NaCl, 10 mM MgCl2, 1 mM EDTA, 0.5% NP-40, 0.5 mM PMSF) each were combined with 1.0 ml of MES buffer (100 mM ph 6.5) containing 20 μM [^14 C]-DIME (10.55 mCi/mmol), and the mixtures were incubated at 37° C. for 4 hours. Then to each tube was added sequentially ethyl acetate (1.5 ml), ammonium sulfate (900 mg) and 60% perchloric acid (160 μl), with vortexing after each addition. After standing for 10 minutes, phase separation was enhanced by benchtop centrifugation. The upper (ethyl acetate) layer was drawn off, and the lower aqueous and interphase material was extracted with a second portion of ethyl acetate (1.5 ml). The ethyl acetate extracts (combined) contained more than 90% of the total cpm present in the original incubate (ca. 4×10^5 cpm). […]

Q: With `O=[N+]([O-])c1ccc(OP(=O)(O)Oc2ccc([N+](=O)[O-])cc2)cc1` [BNPP, bis[p-nitrophenyl] phosphate, reference compound] as the compound, how does the esterase inhibition read?
A: esterase inhibition
